For three molecules, binding results are on record in paper PMC8050843.

By UniProt entry, the sequences of proteins in these tests, tags left out. Where a name states a change or a piece, a line headed by the entry shows the natural chain unless it says otherwise. Chains listed by the source or under a name are the forms on record and can include a tag or linker.
UniProt P40460: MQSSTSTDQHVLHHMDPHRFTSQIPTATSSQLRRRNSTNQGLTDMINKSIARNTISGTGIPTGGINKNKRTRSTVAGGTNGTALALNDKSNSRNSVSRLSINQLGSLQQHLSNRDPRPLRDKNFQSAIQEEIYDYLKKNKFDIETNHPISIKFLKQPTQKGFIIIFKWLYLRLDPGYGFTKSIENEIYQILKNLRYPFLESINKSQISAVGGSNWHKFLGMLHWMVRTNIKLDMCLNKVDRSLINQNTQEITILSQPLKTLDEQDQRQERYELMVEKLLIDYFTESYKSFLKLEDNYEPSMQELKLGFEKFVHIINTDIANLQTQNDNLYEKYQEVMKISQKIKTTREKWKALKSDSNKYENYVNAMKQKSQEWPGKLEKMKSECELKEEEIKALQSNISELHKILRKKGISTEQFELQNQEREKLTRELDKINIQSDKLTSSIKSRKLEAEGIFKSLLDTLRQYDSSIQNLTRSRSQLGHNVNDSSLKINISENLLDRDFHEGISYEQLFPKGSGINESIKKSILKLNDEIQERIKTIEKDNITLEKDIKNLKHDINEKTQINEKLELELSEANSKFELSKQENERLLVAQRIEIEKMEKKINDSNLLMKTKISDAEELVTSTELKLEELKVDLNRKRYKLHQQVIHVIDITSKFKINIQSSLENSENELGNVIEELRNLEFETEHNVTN
Ndc80-7D-3xGFP (P40460, form named): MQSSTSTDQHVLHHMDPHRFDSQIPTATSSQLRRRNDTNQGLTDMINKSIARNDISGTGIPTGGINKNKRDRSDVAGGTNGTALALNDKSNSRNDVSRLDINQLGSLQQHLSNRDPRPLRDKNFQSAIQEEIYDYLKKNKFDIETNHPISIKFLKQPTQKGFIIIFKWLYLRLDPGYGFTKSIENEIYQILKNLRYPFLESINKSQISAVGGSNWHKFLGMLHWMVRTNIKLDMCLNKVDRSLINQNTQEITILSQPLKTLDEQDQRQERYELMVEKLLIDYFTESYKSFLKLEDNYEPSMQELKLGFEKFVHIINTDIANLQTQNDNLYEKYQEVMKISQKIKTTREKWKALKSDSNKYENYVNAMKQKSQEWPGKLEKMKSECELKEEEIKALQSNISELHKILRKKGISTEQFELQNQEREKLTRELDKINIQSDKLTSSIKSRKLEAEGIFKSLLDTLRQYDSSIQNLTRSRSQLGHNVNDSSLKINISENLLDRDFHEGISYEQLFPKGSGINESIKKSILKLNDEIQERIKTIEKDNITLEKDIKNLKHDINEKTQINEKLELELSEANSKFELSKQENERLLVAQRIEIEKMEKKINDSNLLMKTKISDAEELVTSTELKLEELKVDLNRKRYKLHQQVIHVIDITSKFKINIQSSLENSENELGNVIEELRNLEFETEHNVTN

Where two headings read alike, the source gives them in different places. Results are given in words; binding and its absence hold for the method and conditions named. In cells and extracts the contact can be indirect. These calls come from enrichment with a bait or labelling near it, and not all partners need be listed. Tags and fused reporters may be left off the sequences shown.

The target of assay [1] is T1, Dsn1-3xFLAG (budding yeast) (UniProt P40568).
T1 sequence: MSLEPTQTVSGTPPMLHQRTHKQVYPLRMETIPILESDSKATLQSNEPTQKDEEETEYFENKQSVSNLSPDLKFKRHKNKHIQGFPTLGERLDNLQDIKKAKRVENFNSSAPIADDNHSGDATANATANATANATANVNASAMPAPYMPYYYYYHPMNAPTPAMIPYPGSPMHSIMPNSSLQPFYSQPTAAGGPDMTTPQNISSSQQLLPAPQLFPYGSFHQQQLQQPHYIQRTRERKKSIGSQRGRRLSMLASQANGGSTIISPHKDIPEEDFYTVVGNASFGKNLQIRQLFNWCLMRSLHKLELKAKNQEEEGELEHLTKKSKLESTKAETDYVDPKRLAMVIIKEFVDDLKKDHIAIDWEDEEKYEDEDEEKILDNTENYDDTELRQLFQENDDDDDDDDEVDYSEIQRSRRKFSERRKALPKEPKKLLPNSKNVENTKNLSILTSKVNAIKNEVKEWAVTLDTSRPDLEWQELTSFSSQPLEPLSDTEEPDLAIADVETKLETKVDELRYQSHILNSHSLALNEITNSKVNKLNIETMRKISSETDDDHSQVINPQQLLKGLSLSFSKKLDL
The experiment in a line: affinity purification with mass spectrometry; Dsn1-3xFLAG captured from lysate of Dam1-depleted (NAA-treated) yeast on anti-FLAG M2 magnetic beads, buffer H with 150 mM KCl, eluted with FLAG peptide; SDS-PAGE and LC-MS.

Assay [2] addresses T1, Dsn1-3xFLAG (budding yeast). The assay is described as above. This is another data set of the same source.

In the case of “Ndc80-3xGFP (Ndc80-WT) (from UniProt P40460 1-691)”, the binding result in assay [1] is “binds”.

Turning to “Ndc80-7D-3xGFP (from UniProt P40460 1-691)”, the binding entry in assay [1] is listed as “binds”.

B1: Stu2 (protein, UniProt P46675 1-888)
chain: MSGEEEVDYTTLPLEERLTYKLWKARLEAYKELNQLFRNSVGDISRDDNIQIYWRDPTLFAQYITDSNVVAQEQAIVALNSLIDAFASSSLKNAHNITLISTWTPLLVEKGLTSSRATTKTQSMSCILSLCGLDTSITQSVELVIPFFEKKLPKLIAAAANCVYELMAAFGLTNVNVQTFLPELLKHVPQLAGHGDRNVRSQTMNLIVEIYKVTGNNSDLLEEILFKKLKPIQVKDLHKLFAKVGDEPSSSKMLFEWEKRELEKKRSQEEEARKRKSILSNDEGEYQIDKDGDTLMGMETDMPPSKQQSGVQIDTFSMLPEETILDKLPKDFQERITSSKWKDRVEALEEFWDSVLSQTKKLKSTSQNYSNLLGIYGHIIQKDANIQAVALAAQSVELICDKLKTPGFSKDYVSLVFTPLLDRTKEKKPSVIEAIRKALLTICKYYDPLASSGRNEDMLKDILEHMKHKTPQIRMECTQLFNASMKEEKDGYSTLQRYLKDEVVPIVIQIVNDTQPAIRTIGFESFAILIKIFGMNTFVKTLEHLDNLKRKKIEETVKTLPNFSIASGSTHSTIETNKQTGPMENKFLLKKSSVLPSKRVASSPLRNDNKSKVNPIGSVASASKPSMVAANNKSRVLLTSKSLATPKNVVANSTDKNEKLIEEYKYRLQKLQNDEMIWTKERQSLLEKMNNTENYKIEMIKENEMLREQLKEAQSKLNEKNIQLRSKEIDVNKLSDRVLSLENELRNMEIELDRNKKRNDTNLQSMGTISSYSIPSSTVSSNYGVKSLSSALPFKEEEDVRRKEDVNYERRSSESIGDLPHRVNSLNIRPYRKNGTGVSSVSDDLDIDFNDSFASEESYKRAAAVTSTLKARIEKMKAKSRREGTTRT
Regarding B1, the binding entry in assay [2] is listed as “binds”.
